Source: PubChem BioAssay AID624246 (National Center for Advancing Translational Sciences (NCATS), 2012)
Hit rate of the full screen: of about 370,000 compounds, about 100 (0.027%) were called active. This list was built around the results that the source calls inconclusive (neither active nor inactive); the mix of calls is not that of the screen. Calls come from the whole dose curve; as a rule, active = well fitted inhibition curve with a large enough effect in the polarisation, with a control signal flat; inconclusive = small, poorly fitted or top-dose-only effect, or effect the other way, or a change in a side signal; inactive = no such curve, though single readings can be large or run the other way; the % refers to the polarisation. Potencies beside an inconclusive call are fits to weak or partial responses and may not hold up. “Side channel” marks fits to a control or component signal instead of the main read-out.

Chains of the proteins cited; added tags and fusions are not shown.
UniProt P11308, whole entry, looked up: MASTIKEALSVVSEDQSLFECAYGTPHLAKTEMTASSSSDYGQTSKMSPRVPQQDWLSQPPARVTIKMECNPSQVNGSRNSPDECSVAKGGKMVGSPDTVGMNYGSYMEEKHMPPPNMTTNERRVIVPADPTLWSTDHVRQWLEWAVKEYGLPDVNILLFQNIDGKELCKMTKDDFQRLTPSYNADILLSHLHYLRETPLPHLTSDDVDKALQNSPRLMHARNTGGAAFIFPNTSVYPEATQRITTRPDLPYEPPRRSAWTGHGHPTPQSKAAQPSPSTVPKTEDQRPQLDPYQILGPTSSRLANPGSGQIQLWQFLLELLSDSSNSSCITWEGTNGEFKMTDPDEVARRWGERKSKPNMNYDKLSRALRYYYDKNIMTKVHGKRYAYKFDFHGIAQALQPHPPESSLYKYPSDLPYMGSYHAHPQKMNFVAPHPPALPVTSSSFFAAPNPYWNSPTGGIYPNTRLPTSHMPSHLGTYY

Each compound was assayed against Transcriptional regulator ERG (Homo sapiens) (UniProt P11308) (assay: qHTS for Small Molecule Inhibitors of the ERG Ets/DNA interaction). Details: fluorescence polarization, His-ERG Ets domain / labelled DNA; FP activity, negative = inhibition: at 76.9 µM (top of the series).
Outline: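 His-tagged ERG Ets domain (1 uM in the protein solution; 300mM KCl, 50mM Tris-HCl, 1mM EDTA, 1mM DTT, pH 7.5) received compound, then a probe mix of 5 nM fluorescein-DNA and 100nM Texas-615-DNA. Fluorescence polarization was read for both dyes.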
Potency is the fitted concentration of half-maximal effect.
Throughout, for FP activity, negative = inhibition: % of control where 0% means no effect.

Structure (SMILES) | FP activity, negative = inhibition | Potency
O=c1[nH]n(-c2ccccc2)c(=O)cc1Cl | inactive: -4.11% | –
Oc1cc2ccccc2cc1-c1n[nH]c(=S)n1Cc1ccco1 | inactive: -1.95% | –
CN(C)S(=O)(=O)c1ccc(C(=O)Nc2ccc(Cl)cc2)cc1 | – | inconclusive: 6.31 µM [inhibitor, single point]
COc1cccc(CNC(=O)CCCn2ccc3cc(S(=O)(=O)N4CCCC4)ccc32)c1 | inactive: -0.215% | –
CCN(CC)c1ccc(/C=C(\C#N)C(=O)c2ccc(Br)cc2)cc1 | – | inconclusive: 25.1 µM [inhibitor, single point]
CCOc1ccc(NC(=O)N(Cc2cn(CC)c3ccccc23)C2CCCCCC2)cc1 | – | inconclusive: 50.1 µM [quencher, side channel, single point]
O=C(O)c1ccc(-n2cccc2/C=C2/NC(=O)N(c3ccccc3)C2=O)cc1 | inactive: -3.21% | –
OC(CN1CCCCC1)Cn1c2ccccc2c2cc(Br)ccc21 (stereo unspecified) | – | inconclusive: 50.1 µM [inhibitor, single point]
COc1ccc(-c2cc3ncc(C(C)=O)c(C)n3n2)cc1 | – | inconclusive: 3.98 µM [inhibitor, partial curve, poor fit]
COc1ccc(CNC(=O)c2ccc(-c3ccccc3)cc2)cc1 | inactive: 9.42% | –
Nc1ccc2nc3c(=O)n(CCc4ccccc4)c(=O)[nH]c3nc2c1 | – | inconclusive: 17.8 µM [inhibitor, partial curve, poor fit]
O=C1C(=O)N(C2CCN(C(=O)c3ccc(Cl)cc3)CC2)CCN1Cc1ccc(F)cc1 | inactive: -5.25% | –
CCNC(=O)COc1ccc(/C=N/NC(=O)c2cccnc2)cc1OC | – | inconclusive: 35.5 µM [inhibitor, partial curve, poor fit]
CCCNc1ncnc2c1cnn2C1CCCCO1 (stereo unspecified) | – | inconclusive: 11.2 µM [inhibitor, partial curve, poor fit]
Cc1cc(=O)n2c(-c3ccccc3C)n[nH]c2n1 | – | inconclusive: 50.1 µM [fluorescent, side channel, single point]
Cc1ccc(-c2nc3ccccc3[nH]2)cc1NC(=O)COc1cccc(C)c1C | – | inconclusive: 50.1 µM [fluorescent, side channel, single point]
COc1ccc(CC(=O)n2[nH]c(=O)ccc2=O)cc1OC | inactive: -2.86% | –
CCCCCCCCOc1ccc(C2OC34CCCCC3C(C#N)(C#N)C2(C#N)C(=N)O4)cc1 (stereo unspecified) | – | inconclusive: 31.6 µM [fluorescent, partial curve]
CCOc1ccccc1C(=O)N(Cc1cccs1)c1ccc(Cl)cc1 | inactive: -0.81% | –
Cc1nn(Cc2ccccc2Cl)c(C)c1C(=O)NC1=NCCS1 | inactive: -3.84% | –
N#C/C(=C/c1ccccc1[N+](=O)[O-])c1nnc2n1CCCCC2 | inactive: 2.11% | –
COc1ccc(-c2nnc(Nc3ccc(CC(N)=O)cc3)c3ccccc23)cc1 | inactive: -2.63% | –

Structure (SMILES) | FP activity, negative = inhibition | Potency
CN=C1c2ccccc2CN1c1cccc(C(=O)OC)c1 | – | inconclusive: 50.1 µM [fluorescent, side channel, single point]
C=CCNC(=O)c1ccc(OC)cc1 | inactive: 23.9% | –
O=C(NCCc1cccc(C(F)(F)F)c1)C1CCC(=O)N(C2CC2)C1 (stereo unspecified) | inactive: 1.23% | –
Cn1ncc(Cl)c1C(=O)N1CCN(C23CC4CC(CC(C4)C2)C3)CC1 | – | inconclusive: 5.62 µM [inhibitor, single point]
COc1ccccc1Nc1nc(NCc2ccco2)c2ccccc2n1 | – | inconclusive: 50.1 µM [fluorescent, side channel, single point]
c1ccc2sc(NN=C3CCCCCC3)nc2c1 | – | inconclusive: 20 µM [inhibitor, partial curve, poor fit]
CCOc1ccc(/C=C2\SC(=S)N(CCCC(=O)NCCCN3CCOCC3)C2=O)cc1 | inactive: 23.2% | –
Cc1cc(Oc2ccc(=O)n(C)n2)nc(SCCOc2ccccc2)n1 | – | inconclusive: 28.2 µM [quencher, side channel, partial curve, poor fit]
COc1ccc(C(=O)N(CN2CCCC2=O)c2ccc(C)cc2)cc1 | – | inconclusive: 35.5 µM [fluorescent, side channel, single point]
CN(C)CCCNc1c2ccccc2nc2ccccc12 | – | inconclusive: 50.1 µM [inhibitor, single point]
Cc1ccc(S(=O)(=O)N2[C@@H](c3ccccc3F)C(C(=O)O)=CC[C@H]2c2cccs2)cc1 | – | inconclusive: 17.8 µM [inhibitor, partial curve, poor fit]
COc1ccc(NC(=O)c2ccco2)cc1NC(=O)c1ccccc1 | – | inconclusive: 50.1 µM [inhibitor, single point]
O=C(OCCOCCN=C1NS(=O)(=O)c2ccccc21)c1ccccc1Br | – | inconclusive: 6.31 µM [inhibitor, single point]
Cc1ccc(OCC(=O)Nc2ccccc2Sc2ccc(Cl)cc2)c([N+](=O)[O-])n1 | – | inconclusive: 10 µM [quencher, side channel, partial curve, poor fit]
CCN(CC)c1ccc2nc3c(=O)n(C)c(=O)n(C)c3nc2c1 | – | inconclusive: 3.16 µM [fluorescent, side channel, full curve]
O=C(O)c1ccc(Nc2ncnc3scc(-c4ccccc4)c23)cc1 | – | inconclusive: 44.7 µM [inhibitor, single point]
COc1cccc(CN2CCNC(=O)C2CC(=O)N(Cc2cnn(C)c2)C(C)C)c1 (stereo unspecified) | – | inconclusive: 11.2 µM [inhibitor, single point]
COc1ccc(S(=O)(=O)N(CCc2ccccc2)CC(=O)Nc2cc(Cl)ccc2C)cc1 | – | inconclusive: 50.1 µM [fluorescent, single point]
CCN1C(=O)/C(=C\N(C(C)=O)c2ccccc2)OC1=S | inactive: 3.53% | –
CCCCCCSc1nc(N)c2c3c(sc2n1)CCCC3C (stereo unspecified) | inactive: -1.98% | –
COc1cc2c(cc1OC)C(C1C(=O)CC(C)(C)CC1=O)N(C(=O)CCl)CC2 (stereo unspecified) | – | inconclusive: 39.8 µM [fluorescent, single point]
Cn1ccnc1SCc1cn2cc(Br)ccc2n1 | inactive: 7% | –

Another view of some results above.
c1ccc2sc(NN=C3CCCCCC3)nc2c1
  Potency: inconclusive: 20 µM [inhibitor, partial curve, poor fit]
Cc1cc(Oc2ccc(=O)n(C)n2)nc(SCCOc2ccccc2)n1
  Potency: inconclusive: 28.2 µM [quencher, side channel, partial curve, poor fit]
O=C(O)c1ccc(Nc2ncnc3scc(-c4ccccc4)c23)cc1
  Potency: inconclusive: 44.7 µM [inhibitor, single point]

Later entries.

Structure (SMILES) | FP activity, negative = inhibition | Potency
CN1C2CCC1CC(NC(=O)CSCc1ccc(Cl)cc1Cl)C2 (stereo unspecified) | – | inconclusive: 15.8 µM [inhibitor, partial curve, poor fit]
Nc1ccncc1N | – | inconclusive: 50.1 µM [inhibitor, single point]
O=C(C[C@H]1C/C=C\CC[C@@H](Cc2ccc(F)cc2)C(=O)OC[C@H]2CCCN2C1=O)N[C@H](CO)Cc1ccccc1 | – | inconclusive: 8.91 µM [inhibitor, single point]
Cc1cc(N)ccc1N1CCCC1 | – | inconclusive: 20 µM [inhibitor, partial curve, poor fit]
CCCCN1C(N)=NC[C@@H]1CC1CCCCC1 | – | inconclusive: 35.5 µM [inhibitor, single point]
CCNc1nc(OCC)nc(N2CCC(Cc3ccccc3)CC2)n1 | – | inconclusive: 50.1 µM [inhibitor, partial curve, poor fit]
O=C1/C(=C/c2ccco2)SC(=S)N1CC1CCCO1 (stereo unspecified) | – | inconclusive: 28.2 µM [fluorescent, side channel, single point]
CCOC(=O)C1(Cc2ccccc2Cl)CCN(S(=O)(=O)N(C)C)CC1 | – | inconclusive: 11.2 µM [inhibitor, single point]
O=C(NCc1ccccc1)/C(=C/c1ccco1)NC(=O)c1ccco1 | – | inconclusive: 12.6 µM [inhibitor, partial curve, poor fit]
O=C1/C(=C/c2ccncc2)SC(=S)N1Nc1ccccc1 | – | inconclusive: 28.2 µM [fluorescent, side channel, partial curve]
Cc1nn(-c2ccccc2)c2c1cc1c(=O)[nH]c(=O)nc-1n2-c1cccc(C(F)(F)F)c1 | – | inconclusive: 50.1 µM [quencher, side channel, single point]
Cc1ccc(N2C3=C(C(=O)CC(C)(C)C3)C(c3cn(C)nc3C)C3=C2CC(C)(C)CC3=O)cc1 | – | inconclusive: 20 µM [inhibitor, partial curve, poor fit]
CC(=O)Nc1ccc(S(=O)(=O)NCc2ccc3c(c2)cc(C)n3C)cc1 | – | active: 14.1 µM
COc1ccc(CCNC(=O)COC(=O)CSc2ccc([N+](=O)[O-])cc2)cc1OC | inactive: -2.63% | –
O=C(CCn1c(=S)oc2ccccc21)Nc1cccc(O)c1 | inconclusive: 24.4% [phenotype inactive] | –
CC(=O)c1c(C)oc2ccc(N(C(=O)c3ccncc3)S(=O)(=O)c3ccc(F)cc3C)cc12 | inactive: -6.66% | –
Cc1ccccc1NC(=O)COc1ccc2oc(=O)cc(C)c2c1 | – | inconclusive: 3.55 µM [inhibitor, partial curve, poor fit]
Cc1ccc(OCCN2CCN(C(=O)CCC(=O)Nc3nnc(CC(C)C)s3)CC2)cc1 | inactive: 0.759% | –
Cc1ccc(COC(=O)CCN=C2NS(=O)(=O)c3ccccc32)cc1 | – | inconclusive: 22.4 µM [inhibitor, partial curve, poor fit]
COc1ccc(C(=O)NCC(=O)N2CCN(C(=O)c3ccco3)CC2)cc1 | – | inconclusive: 22.4 µM [inhibitor, partial curve, poor fit]
CN(C)C=NC(=O)c1cc(C(=O)c2ccc(Cl)cc2)c[nH]1 | – | inconclusive: 11.2 µM [inhibitor, single point]
Cc1ccccc1NC(=O)Cn1c(=O)n(Cc2ccco2)c(=O)c2cccnc21 | – | inconclusive: 39.8 µM [fluorescent, side channel, partial curve, poor fit]
